Experimental data reported in the supplement of paper PMC7877785.
± gives the uncertainty stated by the source. Many of these values have a large error.

Test: self-splicing fitness, log relative to wild type (ln ratio); higher = more splicing; Tetrahymena group I intron in knt gene, E. coli kanamycin selection, DiMSum; sequences stand for … in CUCUCU…GGAGGGAAAAGUUAUCAGGCAUGCACCUGGUAGCUAGUCUUUAAACCAAUAGAUUGCAUCGGUUUAAAAGGCAAGACCGUCAAAUUGCGGGAAAGGGGUCAACAGCCGUUCAGUACCAAGUCUCAGGGGAAACUUUGAGAUGGCCUUGCAAAGGGUAUGGUAAUAAGCUGACGGACAUGGUCCUAACCACGCAGCCAAGUCCUAAGUCAACAGAUCUUCUGUUGAUAUGGAUGCAGUUCACAGACUAAAUGUCGGUCGGGGAAGAUGUAUUCUUCUCAUAAGAUAUAGUCGGACCUCUCCUUAAUGGGAGCUAGCGGAUGAAGUGAUGCAACACUGGAGCCGCUGGGAACUAAUUUGUAUGCGAAAGUAUAUUGAUUAGUUUUGGAGUACUCGUGGUCG
In short: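 Six replicate transformations of E. coli BL21(DE3) with a pET-22b(+) library were grown overnight at 37°C or 30°C. The library randomised all eight P1ex-region intron nucleotides, the intron lying in the knt kanamycin-resistance gene, and plates were LB agar with or without 25 μg/mL kanamycin plus 100 μg/mL carbenicillin, 50 μM IPTG and 0.2% rhamnose. Pooled colonies were amplicon-sequenced on an Illumina HiSeq 2500, and fitness is the DiMSum error-weighted combination of wild-type-normalised replicate fold changes, kanamycin versus none.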

Sequence | self-splicing fitness (ln) (30 °C) | self-splicing fitness (ln) (37 °C)
GCUGAGCAAUAUUACGUGGC | -1.55 ± 0.71 | -1.52 ± 0.64
GUGGAGCAAUAUUACGCCAU | -3.51 ± 0.61 | -1.79 ± 0.82
UAAUAGCAAUAUUACGUCAU | -4 ± 0.28 | -2.52 ± 0.22
UAUAAGCAAUAUUACGCGAC | – | -1.59 ± 0.84
GGAGAGCAAUAUUACGCUAG | -1.3 ± 0.36 | -0.901 ± 0.42
CCUGAGCAAUAUUACGGGAC | -4.19 ± 0.46 | -2.08 ± 0.27
AAUGAGCAAUAUUACGCCUC | -3.86 ± 0.73 | -3.08 ± 1
AUAUAGCAAUAUUACGACCC | – | -0.334 ± 0.56
GUGAAGCAAUAUUACGCCCA | -1.26 ± 0.65 | 0.521 ± 0.66
UCAGAGCAAUAUUACGCGUC | – | -2.08 ± 0.58
UCUUAGCAAUAUUACGUCGC | -2.56 ± 0.77 | -2.67 ± 1.1
AACGAGCAAUAUUACGGGGA | -2.72 ± 0.21 | -3.6 ± 0.34
AAAGAGCAAUAUUACGUUAC | – | -1.84 ± 0.52
AGUCAGCAAUAUUACGGAAC | -2.87 ± 0.15 | -1.89 ± 0.15
AACGAGCAAUAUUACGUUCC | -3.09 ± 0.36 | -2.41 ± 0.3
CCCUAGCAAUAUUACGCUGC | – | -4 ± 0.51
CUCGAGCAAUAUUACGUGUU | -2.06 ± 0.16 | -1.97 ± 0.19
GGAGAGCAAUAUUACGUGCU | – | -3.71 ± 0.52
CAUGAGCAAUAUUACGCUAU | -3.46 ± 0.3 | -1.99 ± 0.21
CUCUAGCAAUAUUACGACUU | -4.08 ± 0.74 | –
GAUAAGCAAUAUUACGAUCC | -1.63 ± 0.61 | -2.43 ± 0.79
AGCAAGCAAUAUUACGUCGC | -4.11 ± 0.59 | –
GAGUAGCAAUAUUACGUCAC | – | -3.99 ± 0.72
GCUUAGCAAUAUUACGCCAU | -3.49 ± 0.54 | –
GUGUAGCAAUAUUACGUCUC | -2.02 ± 1.2 | -0.769 ± 0.72

As entered above:
AAUGAGCAAUAUUACGCCUC – self-splicing fitness (ln) (37 °C): -3.08 ± 1
GAUAAGCAAUAUUACGAUCC – self-splicing fitness (ln) (30 °C): -1.63 ± 0.61
CAUGAGCAAUAUUACGCUAU – self-splicing fitness (ln) (30 °C): -3.46 ± 0.3

Later entries.

Sequence | self-splicing fitness (ln) (30 °C) | self-splicing fitness (ln) (37 °C)
UCGGAGCAAUAUUACGGCAA | – | -2.2 ± 0.64
AUCGAGCAAUAUUACGUCCC | -1.12 ± 0.76 | –
UGAGAGCAAUAUUACGGGAU | -4.3 ± 0.59 | –
CCCUAGCAAUAUUACGCUAU | – | -3.54 ± 0.52
AUGAAGCAAUAUUACGUGCA | -0.0826 ± 0.093 | 0.364 ± 0.11
GAGUAGCAAUAUUACGCGAC | -3.51 ± 0.62 | -0.352 ± 0.78
CGGUAGCAAUAUUACGCCGU | -5.78 ± 1 | -2.98 ± 0.53
UUCUAGCAAUAUUACGCGAC | – | -1.53 ± 0.69
GAGAAGCAAUAUUACGACUC | -2.38 ± 0.18 | -1.82 ± 0.23
CCUAAGCAAUAUUACGCUUA | -3.09 ± 0.18 | -1.97 ± 0.29
GGUUAGCAAUAUUACGCAAU | – | -1.52 ± 0.61
UAGCAGCAAUAUUACGAUAU | -2.42 ± 0.15 | -2.98 ± 0.19
CUCUAGCAAUAUUACGCAGC | – | -3.43 ± 0.6
CACUAGCAAUAUUACGACAC | -2.65 ± 0.22 | -1.69 ± 0.24
UCUGAGCAAUAUUACGAUAU | -4.15 ± 0.51 | -2.79 ± 1.1
AGUUAGCAAUAUUACGCGAU | -0.77 ± 0.57 | -1.85 ± 0.81
GGGGAGCAAUAUUACGGAUC | -1.4 ± 1.2 | 0.321 ± 1.2
UUUGAGCAAUAUUACGUAAC | -2.01 ± 0.5 | -1.53 ± 0.69
GACCAGCAAUAUUACGCCAC | -3.67 ± 0.52 | –
CGAGAGCAAUAUUACGAAUG | -2.96 ± 0.2 | -2.03 ± 0.21
CCAGAGCAAUAUUACGAUCU | -4.57 ± 1 | -1.95 ± 0.57
UGACAGCAAUAUUACGUCAC | -3.74 ± 0.17 | -3.16 ± 0.23
GUCAAGCAAUAUUACGGCAG | -5.32 ± 0.58 | –
GUGGAGCAAUAUUACGAUAA | – | 0.459 ± 1.2
